These are yes or no findings as the source states them, for the method shown. Binding seen in cells or lysates may run through a third protein. Binding calls can cover weak binding; strength is not graded here. Tags and fused reporters may be left off the sequences shown.
Target: T1, HA-SREBP2 (human) (UniProt Q12772)
T1 sequence: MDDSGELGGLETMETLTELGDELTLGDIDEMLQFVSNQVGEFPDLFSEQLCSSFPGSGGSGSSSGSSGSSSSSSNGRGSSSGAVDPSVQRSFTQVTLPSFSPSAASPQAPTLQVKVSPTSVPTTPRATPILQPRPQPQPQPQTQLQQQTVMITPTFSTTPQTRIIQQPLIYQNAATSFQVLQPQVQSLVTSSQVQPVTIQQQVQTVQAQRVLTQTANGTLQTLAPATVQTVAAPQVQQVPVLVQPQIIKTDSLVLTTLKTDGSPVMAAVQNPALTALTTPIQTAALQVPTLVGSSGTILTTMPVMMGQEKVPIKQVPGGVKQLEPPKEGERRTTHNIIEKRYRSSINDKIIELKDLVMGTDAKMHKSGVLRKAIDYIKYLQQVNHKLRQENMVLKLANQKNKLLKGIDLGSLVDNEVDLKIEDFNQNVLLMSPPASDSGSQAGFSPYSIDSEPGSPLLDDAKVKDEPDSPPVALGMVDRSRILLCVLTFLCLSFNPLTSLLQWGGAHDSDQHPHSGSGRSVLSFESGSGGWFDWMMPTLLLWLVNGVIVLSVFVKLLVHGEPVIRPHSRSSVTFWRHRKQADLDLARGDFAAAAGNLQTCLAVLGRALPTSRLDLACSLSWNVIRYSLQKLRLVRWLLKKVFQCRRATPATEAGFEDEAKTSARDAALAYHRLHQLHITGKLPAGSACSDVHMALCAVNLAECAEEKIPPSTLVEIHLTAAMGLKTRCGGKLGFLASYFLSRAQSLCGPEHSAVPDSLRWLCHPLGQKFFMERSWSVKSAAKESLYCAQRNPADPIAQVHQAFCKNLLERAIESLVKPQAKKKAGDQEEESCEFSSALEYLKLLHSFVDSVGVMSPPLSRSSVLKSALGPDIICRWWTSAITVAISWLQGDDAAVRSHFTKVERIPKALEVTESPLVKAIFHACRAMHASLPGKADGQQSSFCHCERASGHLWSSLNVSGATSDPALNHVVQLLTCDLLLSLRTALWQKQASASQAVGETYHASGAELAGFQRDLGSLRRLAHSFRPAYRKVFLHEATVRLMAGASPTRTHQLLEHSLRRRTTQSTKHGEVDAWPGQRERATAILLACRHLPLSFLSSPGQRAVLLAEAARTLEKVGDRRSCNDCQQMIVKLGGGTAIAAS
Experiment: co-IP; HepG2 cells co-transfected, lysed 24-48 h after transfection in 50 mM Tris-HCl pH 8.0, 150 mM NaCl, 1% NP-40 with protease inhibitors; lysates incubated overnight with anti-FLAG M2 or anti-HA affinity gel; immunoblot

## Flag-preCore (hepatitis B virus)
  binding: binds

Reference: paper PMC11769810
